Experimental data published in article doi:10.1101/2022.07.21.500952.
Where two headings read alike, the source gives them in different places. Results are given in words; binding and its absence hold for the method and conditions named. In cells and extracts the contact can be indirect. Some entries that bind do so weakly or less than the wild type. For some of these results: Tags and fused reporters may be left off the sequences shown.

Amino acid sequences for entries named in this document (tags omitted).
UniProt Q13200: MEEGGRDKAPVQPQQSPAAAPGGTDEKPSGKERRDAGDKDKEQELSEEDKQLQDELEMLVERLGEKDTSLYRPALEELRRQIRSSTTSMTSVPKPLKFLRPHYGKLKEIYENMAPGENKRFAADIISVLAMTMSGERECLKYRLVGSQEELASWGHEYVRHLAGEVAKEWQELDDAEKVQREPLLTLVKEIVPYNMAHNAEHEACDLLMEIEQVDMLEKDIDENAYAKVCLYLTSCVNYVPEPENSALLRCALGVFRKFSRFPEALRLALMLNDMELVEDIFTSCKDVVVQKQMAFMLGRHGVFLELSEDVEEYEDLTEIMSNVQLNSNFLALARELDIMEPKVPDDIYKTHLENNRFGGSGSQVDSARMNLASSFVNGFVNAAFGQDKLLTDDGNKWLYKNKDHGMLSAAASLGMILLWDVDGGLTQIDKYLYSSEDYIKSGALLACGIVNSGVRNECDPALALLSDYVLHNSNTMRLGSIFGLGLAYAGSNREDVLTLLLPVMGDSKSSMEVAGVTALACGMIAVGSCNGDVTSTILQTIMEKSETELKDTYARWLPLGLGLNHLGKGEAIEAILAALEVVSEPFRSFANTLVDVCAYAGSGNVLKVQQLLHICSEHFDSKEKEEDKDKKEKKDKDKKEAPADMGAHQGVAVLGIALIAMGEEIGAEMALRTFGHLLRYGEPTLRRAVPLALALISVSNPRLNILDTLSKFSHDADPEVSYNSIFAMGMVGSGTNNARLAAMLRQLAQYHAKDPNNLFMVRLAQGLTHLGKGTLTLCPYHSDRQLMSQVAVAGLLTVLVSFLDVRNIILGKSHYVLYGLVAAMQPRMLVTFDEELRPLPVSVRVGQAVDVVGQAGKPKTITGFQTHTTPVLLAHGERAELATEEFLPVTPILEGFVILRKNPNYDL
UniProt O00232: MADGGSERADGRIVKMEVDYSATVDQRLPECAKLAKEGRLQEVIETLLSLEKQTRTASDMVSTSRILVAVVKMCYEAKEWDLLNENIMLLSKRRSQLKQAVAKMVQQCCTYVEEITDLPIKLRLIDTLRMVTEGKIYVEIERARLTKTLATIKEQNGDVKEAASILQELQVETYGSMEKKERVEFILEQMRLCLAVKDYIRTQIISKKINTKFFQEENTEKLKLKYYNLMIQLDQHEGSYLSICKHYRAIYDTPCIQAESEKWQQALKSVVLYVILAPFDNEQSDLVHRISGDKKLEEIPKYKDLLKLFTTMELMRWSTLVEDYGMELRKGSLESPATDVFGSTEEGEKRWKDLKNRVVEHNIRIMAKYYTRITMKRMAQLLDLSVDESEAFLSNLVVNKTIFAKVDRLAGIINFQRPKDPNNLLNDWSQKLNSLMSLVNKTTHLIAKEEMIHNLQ
UniProt P62333: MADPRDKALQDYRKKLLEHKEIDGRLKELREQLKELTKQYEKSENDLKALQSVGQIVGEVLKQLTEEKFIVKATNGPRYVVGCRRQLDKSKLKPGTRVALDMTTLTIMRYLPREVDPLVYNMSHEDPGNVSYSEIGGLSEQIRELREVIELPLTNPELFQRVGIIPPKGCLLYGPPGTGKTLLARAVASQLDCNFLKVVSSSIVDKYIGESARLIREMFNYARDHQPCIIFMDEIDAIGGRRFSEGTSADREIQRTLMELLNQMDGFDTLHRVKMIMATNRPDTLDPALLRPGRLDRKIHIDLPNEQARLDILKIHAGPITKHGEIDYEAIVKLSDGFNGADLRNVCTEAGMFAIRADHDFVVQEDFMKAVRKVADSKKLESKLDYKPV
UniProt Q16186: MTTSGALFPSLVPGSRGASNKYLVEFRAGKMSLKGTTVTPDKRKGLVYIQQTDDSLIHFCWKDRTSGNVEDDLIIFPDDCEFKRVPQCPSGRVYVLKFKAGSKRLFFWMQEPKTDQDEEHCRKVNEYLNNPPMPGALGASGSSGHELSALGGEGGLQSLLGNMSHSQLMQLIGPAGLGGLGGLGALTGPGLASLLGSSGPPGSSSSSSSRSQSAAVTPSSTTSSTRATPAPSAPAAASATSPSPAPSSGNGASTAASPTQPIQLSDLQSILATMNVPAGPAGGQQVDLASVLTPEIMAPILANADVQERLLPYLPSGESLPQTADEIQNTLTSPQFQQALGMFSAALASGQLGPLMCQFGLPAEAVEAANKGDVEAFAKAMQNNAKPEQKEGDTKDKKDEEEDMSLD
UniProt O00487: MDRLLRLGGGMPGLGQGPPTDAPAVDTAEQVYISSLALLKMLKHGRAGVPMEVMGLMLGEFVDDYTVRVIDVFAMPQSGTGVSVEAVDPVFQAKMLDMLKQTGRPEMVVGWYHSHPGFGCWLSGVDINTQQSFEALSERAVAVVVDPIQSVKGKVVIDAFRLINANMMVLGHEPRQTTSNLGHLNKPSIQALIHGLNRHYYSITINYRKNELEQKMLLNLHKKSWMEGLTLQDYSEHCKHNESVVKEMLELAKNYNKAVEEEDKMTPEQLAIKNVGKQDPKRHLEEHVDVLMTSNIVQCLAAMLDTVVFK
UniProt Q16401: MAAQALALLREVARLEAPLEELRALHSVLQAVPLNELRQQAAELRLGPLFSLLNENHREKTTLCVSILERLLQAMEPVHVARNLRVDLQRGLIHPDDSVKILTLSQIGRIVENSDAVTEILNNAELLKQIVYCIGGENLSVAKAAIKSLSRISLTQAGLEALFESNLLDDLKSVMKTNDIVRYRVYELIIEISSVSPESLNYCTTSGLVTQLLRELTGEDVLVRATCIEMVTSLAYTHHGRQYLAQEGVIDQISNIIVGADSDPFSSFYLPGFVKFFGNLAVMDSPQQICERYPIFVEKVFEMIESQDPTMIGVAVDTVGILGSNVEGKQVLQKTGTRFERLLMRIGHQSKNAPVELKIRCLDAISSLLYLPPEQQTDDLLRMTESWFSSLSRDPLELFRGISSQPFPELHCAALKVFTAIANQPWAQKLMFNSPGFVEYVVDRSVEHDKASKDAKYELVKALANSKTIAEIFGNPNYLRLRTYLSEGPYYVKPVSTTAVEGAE
UniProt Q16531: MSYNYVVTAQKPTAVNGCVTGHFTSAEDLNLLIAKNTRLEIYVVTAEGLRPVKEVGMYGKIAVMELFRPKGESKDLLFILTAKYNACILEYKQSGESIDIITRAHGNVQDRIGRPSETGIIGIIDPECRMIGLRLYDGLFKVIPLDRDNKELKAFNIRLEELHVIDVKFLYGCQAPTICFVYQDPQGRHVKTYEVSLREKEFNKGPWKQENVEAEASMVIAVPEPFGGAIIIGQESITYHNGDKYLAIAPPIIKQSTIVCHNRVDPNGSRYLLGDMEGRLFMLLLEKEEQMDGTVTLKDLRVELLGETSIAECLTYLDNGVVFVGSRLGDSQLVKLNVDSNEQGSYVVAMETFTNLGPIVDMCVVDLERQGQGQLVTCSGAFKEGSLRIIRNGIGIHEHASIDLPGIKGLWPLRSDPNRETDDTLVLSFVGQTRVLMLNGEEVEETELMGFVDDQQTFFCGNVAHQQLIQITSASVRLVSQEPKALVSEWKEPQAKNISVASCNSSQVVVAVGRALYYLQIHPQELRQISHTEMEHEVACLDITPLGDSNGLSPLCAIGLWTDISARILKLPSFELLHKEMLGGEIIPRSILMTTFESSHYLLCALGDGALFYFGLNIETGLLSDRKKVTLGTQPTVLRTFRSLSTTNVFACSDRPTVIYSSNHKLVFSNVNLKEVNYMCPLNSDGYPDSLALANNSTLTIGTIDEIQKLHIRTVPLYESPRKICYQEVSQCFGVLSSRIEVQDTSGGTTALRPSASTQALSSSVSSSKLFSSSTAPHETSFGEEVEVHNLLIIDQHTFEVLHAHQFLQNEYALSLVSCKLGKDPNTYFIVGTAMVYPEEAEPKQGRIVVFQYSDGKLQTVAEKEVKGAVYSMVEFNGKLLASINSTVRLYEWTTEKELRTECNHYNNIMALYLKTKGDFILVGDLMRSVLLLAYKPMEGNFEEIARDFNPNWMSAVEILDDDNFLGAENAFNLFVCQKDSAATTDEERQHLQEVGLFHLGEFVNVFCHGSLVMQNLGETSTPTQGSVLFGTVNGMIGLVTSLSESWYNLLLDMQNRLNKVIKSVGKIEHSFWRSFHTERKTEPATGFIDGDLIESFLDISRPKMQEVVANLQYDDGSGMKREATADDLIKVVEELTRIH

How the values were obtained:
[1] = target: T1, His-WDR70 (112-654 aa) (UniProt Q9NW82); experiment: pull-down
T1 sequence: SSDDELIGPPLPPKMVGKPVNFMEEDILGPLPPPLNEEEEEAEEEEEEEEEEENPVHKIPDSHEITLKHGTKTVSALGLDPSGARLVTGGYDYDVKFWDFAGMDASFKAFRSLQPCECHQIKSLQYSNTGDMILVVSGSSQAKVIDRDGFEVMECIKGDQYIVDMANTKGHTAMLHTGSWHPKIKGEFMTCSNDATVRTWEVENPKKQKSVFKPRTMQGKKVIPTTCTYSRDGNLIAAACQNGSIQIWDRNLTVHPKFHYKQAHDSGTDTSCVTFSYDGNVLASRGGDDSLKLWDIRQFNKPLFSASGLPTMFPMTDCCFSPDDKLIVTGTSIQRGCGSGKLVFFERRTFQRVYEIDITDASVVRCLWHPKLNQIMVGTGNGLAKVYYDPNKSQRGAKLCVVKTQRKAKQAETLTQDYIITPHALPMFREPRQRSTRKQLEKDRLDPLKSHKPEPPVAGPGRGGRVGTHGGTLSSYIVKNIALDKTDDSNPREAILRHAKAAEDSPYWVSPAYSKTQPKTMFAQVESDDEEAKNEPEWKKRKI

[2] = target: Flag-tagged PSMD2^Rpn1 (UniProt Q13200); experiment: co-IP
[3] = target: Flag-PSMD12^Rpn5 (UniProt O00232); experiment: co-IP
[4] = target: Flag-PSMC6^Rpt4 (UniProt P62333); experiment: co-IP
[5] = target: Flag-ADRM1^Rpn13 (human) (UniProt Q16186); experiment: co-IP
[6] = target: Flag-POH1^Rpn11 (UniProt O00487); experiment: co-IP
[7] = target: Flag-tagged PSMD2^Rpn1 (UniProt Q13200); experiment: co-IP; remark: listed apart in the source

PSMD5^Hsm3 (endogenous, HEK293T nuclear extract) (from UniProt Q16401 1-504)
binding [1]: binds

DDB1 (endogenous, L02 and T43 cells) (from UniProt Q16531 1-1140)
binding [2]: binds

B1: WDR70 (endogenous, HEK293T) (protein, UniProt Q9NW82 1-654)
chain: MERSGPSEVTGSDASGPDPQLAVTMGFTGFGKKARTFDLEAMFEQTRRTAVERSRKTLEAREKEEEMNREKELRRQNEDIEPTSSRSNVVRDCSKSSSRDTSSSESEQSSDSSDDELIGPPLPPKMVGKPVNFMEEDILGPLPPPLNEEEEEAEEEEEEEEEEENPVHKIPDSHEITLKHGTKTVSALGLDPSGARLVTGGYDYDVKFWDFAGMDASFKAFRSLQPCECHQIKSLQYSNTGDMILVVSGSSQAKVIDRDGFEVMECIKGDQYIVDMANTKGHTAMLHTGSWHPKIKGEFMTCSNDATVRTWEVENPKKQKSVFKPRTMQGKKVIPTTCTYSRDGNLIAAACQNGSIQIWDRNLTVHPKFHYKQAHDSGTDTSCVTFSYDGNVLASRGGDDSLKLWDIRQFNKPLFSASGLPTMFPMTDCCFSPDDKLIVTGTSIQRGCGSGKLVFFERRTFQRVYEIDITDASVVRCLWHPKLNQIMVGTGNGLAKVYYDPNKSQRGAKLCVVKTQRKAKQAETLTQDYIITPHALPMFREPRQRSTRKQLEKDRLDPLKSHKPEPPVAGPGRGGRVGTHGGTLSSYIVKNIALDKTDDSNPREAILRHAKAAEDSPYWVSPAYSKTQPKTMFAQVESDDEEAKNEPEWKKRKI
binding [3]: binds | binding [4]: binds | binding [5]: binds | binding [6]: binds

B2: WDR70 (endogenous, L02 and T43 cells) (protein, UniProt Q9NW82 1-654)
chain: MERSGPSEVTGSDASGPDPQLAVTMGFTGFGKKARTFDLEAMFEQTRRTAVERSRKTLEAREKEEEMNREKELRRQNEDIEPTSSRSNVVRDCSKSSSRDTSSSESEQSSDSSDDELIGPPLPPKMVGKPVNFMEEDILGPLPPPLNEEEEEAEEEEEEEEEEENPVHKIPDSHEITLKHGTKTVSALGLDPSGARLVTGGYDYDVKFWDFAGMDASFKAFRSLQPCECHQIKSLQYSNTGDMILVVSGSSQAKVIDRDGFEVMECIKGDQYIVDMANTKGHTAMLHTGSWHPKIKGEFMTCSNDATVRTWEVENPKKQKSVFKPRTMQGKKVIPTTCTYSRDGNLIAAACQNGSIQIWDRNLTVHPKFHYKQAHDSGTDTSCVTFSYDGNVLASRGGDDSLKLWDIRQFNKPLFSASGLPTMFPMTDCCFSPDDKLIVTGTSIQRGCGSGKLVFFERRTFQRVYEIDITDASVVRCLWHPKLNQIMVGTGNGLAKVYYDPNKSQRGAKLCVVKTQRKAKQAETLTQDYIITPHALPMFREPRQRSTRKQLEKDRLDPLKSHKPEPPVAGPGRGGRVGTHGGTLSSYIVKNIALDKTDDSNPREAILRHAKAAEDSPYWVSPAYSKTQPKTMFAQVESDDEEAKNEPEWKKRKI
binding [7]: binds
